Screen size: about 410,000 compounds; about 18,000 (4.4%) were called active. The shares of active, inactive and inconclusive entries below differ from those in the screen. Cut-off read from the data, not from the text of the source: active = activity change below about -60%; inconclusive = no clear call, values can overlap the other calls; inactive = above about -39%.
Test: qHTS Assay for inhibitors of the human cytomegalovirus (HCMV)
Conditions: HFF cells, HCMV-luciferase reporter, 72 h; at 57.5 µM; stronger effect = lower value
How it was run: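 Inhibition of viral replication was scored as loss of reporter luminescence in HFFs infected with HCMV-luciferase (MOI 1 PFU/cell) for 72 h; compounds tested at 2 doses, normalized to buffer and Salinomycin controls.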
% is set by controls: 0 for no effect and ±100 for the full control effect.

Row | Structure (SMILES) | activity change, negative = inhibition
1 | COc1ccc(Br)cc1CNC(=O)CCc1nc(-c2ccccc2F)no1 | inconclusive: -45.5%
2 | Nc1nnc(C(c2ccccc2)c2ccccc2)s1 | inactive: 4.63%
3 | Cc1nc(Cl)c(Cl)n1CCOc1ccccc1 | inactive: -0.75%
4 | Cc1ccc(S(=O)(=O)N2CCOC2C(Cl)(Cl)Cl)cc1 (stereo not given) | inconclusive: -42.8%
5 | Cc1ccc(C)c(NC(=O)c2cc(S(=O)(=O)NCc3ccccc3)ccc2F)c1 | inconclusive: -45.6%
6 | CCCCCCc1cc2cc(C(=O)Nc3cccc(OC)c3)c(=O)oc2cc1O | active: -87.9%
7 | CN(C)CCN(Cc1cccs1)c1ccccn1 | inconclusive: -50.1%
8 | S=C(NNC(=S)Nc1ccc(Cl)cc1)NNc1ccccc1 | inconclusive: -42.7%
9 | COc1ccc(N2C(=O)/C(=C/c3ccc([N+](=O)[O-])cc3)N=C2C)c(OC)c1 | inactive: -39.5%
10 | Cc1c(Cl)cccc1NC(=O)C(=O)NCCc1csc2nc(-c3ccccc3F)nn12 | inconclusive: -45.3%
11 | CCN1CCN(CCCNC(=O)Cn2c(-c3cccs3)cc3cc(Cl)ccc32)CC1 | inconclusive: -55.8%
12 | COc1ccc(CC(=O)Nc2ccc(-c3nnc(-c4ccc(C)cc4)o3)cc2)cc1 | active: -63.2%
13 | COc1ccc(CCNC(=S)N2CCC(C(N)=O)CC2)cc1 | inactive: 0%
14 | CCc1ccc(-c2cc(C)no2)cc1S(=O)(=O)NC(C)Cc1ccco1 (stereo not given) | inconclusive: -49.5%
15 | Cc1ccc2cc3c(NC(=O)c4ccco4)nn(C)c3nc2c1 | inactive: -37.9%
16 | CN(C)c1ccc(C(=S)Nc2ccccc2)cc1 | active: -64.6%
17 | CCc1cc(C(=O)c2ccc(OC)cc2)c(NC(=O)CN2CCCC2)s1 | inactive: 7.46%
18 | CC1(C)CC2(CC(c3cccs3)c3cc(Cl)c(O)cc3O2)NC(=S)N1 (stereo not given) | inconclusive: -42.5%
19 | O=c1c2ccccc2nc(/C=C/c2cccnc2)n1CCc1ccccc1 | active: -74.8%
20 | CC(Oc1ccc2c(-c3ccccc3)cc(=O)oc2c1)C(=O)NCC(O)c1ccccc1 (stereo not given) | inactive: 10.1%
21 | C/C=C\C(=O)Nc1cccc(C2=NOC3(C2)C[C@H](C(N)=O)N(C(=O)/C=C/CC)C3)c1 (stereo not given in full) | inconclusive: -46.1%
22 | COc1ccc(-c2csc(C(O)c3ccc(F)c(OC)c3)n2)cc1 (stereo not given) | inconclusive: -58.9%
23 | Cc1ccc(SCCNC(=S)Nc2ccc(C)cc2C)cc1 | inconclusive: -53.9%
24 | O=S(=O)(c1ccc(F)cc1)N1CCC(c2nc3ccccc3[nH]2)CC1 | inconclusive: -43.3%
25 | Cc1ccc(-c2csc(C(C)(O)c3cccc(F)c3)n2)cc1C (stereo not given) | inactive: -4.58%

Some of these compounds in order of SMILES length, largest number first:
Row | Structure (SMILES) | activity change, negative = inhibition
12 | COc1ccc(CC(=O)Nc2ccc(-c3nnc(-c4ccc(C)cc4)o3)cc2)cc1 | active: -63.2%
22 | COc1ccc(-c2csc(C(O)c3ccc(F)c(OC)c3)n2)cc1 (stereo not given) | inconclusive: -58.9%
25 | Cc1ccc(-c2csc(C(C)(O)c3cccc(F)c3)n2)cc1C (stereo not given) | inactive: -4.58%
